In patent publication US8629110B2, “Kv1.3 channel blocking substances for the treatment of diseases associated with intimal hyperplasia” (priority 2008, dated 2014):
For at least one compound, name, drawing or mass did not settle the structure. Some of these results come from one statement about several compounds together.

By UniProt entry, the sequences of proteins in these tests, tags left out.
UniProt P22001, whole entry: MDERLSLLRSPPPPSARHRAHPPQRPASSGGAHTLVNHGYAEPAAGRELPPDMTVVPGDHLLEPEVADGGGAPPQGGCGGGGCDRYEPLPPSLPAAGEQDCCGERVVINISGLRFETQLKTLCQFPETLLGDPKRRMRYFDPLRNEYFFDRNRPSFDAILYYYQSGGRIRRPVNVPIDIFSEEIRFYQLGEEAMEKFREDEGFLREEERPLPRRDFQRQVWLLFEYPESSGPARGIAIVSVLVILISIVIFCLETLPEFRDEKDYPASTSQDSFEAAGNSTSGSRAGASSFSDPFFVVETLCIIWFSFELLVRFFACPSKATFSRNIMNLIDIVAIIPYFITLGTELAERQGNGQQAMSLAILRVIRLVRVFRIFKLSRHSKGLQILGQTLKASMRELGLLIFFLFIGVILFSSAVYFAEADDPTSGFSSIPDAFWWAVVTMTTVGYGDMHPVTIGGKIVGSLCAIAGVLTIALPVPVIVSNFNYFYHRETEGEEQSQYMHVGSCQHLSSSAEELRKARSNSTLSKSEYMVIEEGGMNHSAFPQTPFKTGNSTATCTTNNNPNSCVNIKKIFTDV

Key:
[1] = molecular target: Kv1.3 channel (Homo sapiens, UniProt P22001); conditions: read-out: Affinity (Kd); cited from earlier work
[2] = Swine stent model: pharmacokinetics (blood and arterial tissue levels); type: in vivo, pigs; conditions: at 4 days; below the limit of detection
Protocol: The total weight of the polymer with the drug is about 500 μg and the drug:polymer ratio is 30%. The stents are packed individually, coded with a bar code (to do a double blind experiment) and sterilized with ethylene oxide.
36 stents (12 with the polymer alone, 12 with PAP and 12 with ShK) are implanted in 12 young pigs (25-35 kg) in the anterior descending or circumflex branches of the left coronary artery or in the right coronary artery (at a proportion of 3 stents per animal). The animals recover from the operation and are sent back to the animal house where they receive a normal diet supplemented with aspirin (325 mg/d). Blood samples of the animals are obtained at 6, 12, 24, 48 and 96 hours to determine the plasma levels of PAP and ShK. At 7 (n=4) or 28 days (n=8) the animals are euthanized after performing a coronary arteriography for the quantitative analysis. In one animal of each group (7 and 28 days), after euthanasia the coronary arteries are dissected, the stent is removed and the samples are frozen in liquid nitrogen in order to determine different markers by means of Western blot of the tissues and to determine the levels of PAP and ShK in the arterial wall. In the rest of the animals, immediately after euthanasia the hearts are collected and the coronary arteries are fixed by perfusion of formalin at 10% for 30 minutes.

Compound | Kd [1] [mM] | blood levels [2] [ng/mL]
[Cd+2] [Cd^2+] | 2 | 
O=c1ccc2c(OCCCCOc3ccccc3)c3ccoc3cc2o1 [PAP-1] |  | < 0.2
